These are yes or no findings as the source states them, for the method shown.
Target: His-tagged Escherichia coli bacterioferritin (C-terminal His-tag) (E. coli) (UniProt P0ABD3)
Test: dynamic light scattering; Bfr acidified to pH 2.0, 23 °C, 90 min (declustering); both purified

By UniProt entry, the sequences of proteins in these tests, tags left out.
UniProt P0ABD3: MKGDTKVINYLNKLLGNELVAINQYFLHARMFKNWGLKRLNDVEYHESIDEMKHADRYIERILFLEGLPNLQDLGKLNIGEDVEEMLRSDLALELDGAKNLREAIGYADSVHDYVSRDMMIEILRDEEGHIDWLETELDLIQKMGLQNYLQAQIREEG

His-tagged Escherichia coli bacterioferritin (C-terminal His-tag) (from UniProt P0ABD3 1-158)
binding: no binding (condition: at pH 2.0)

From PMC10301331
